No constants are given. Whether binding was seen depends on the method and setting. Binding seen in cells or lysates may run through a third protein. Some results given as binding are weak or reduced against the parent protein; the word gives no strength. Where a sequence is shown, tags or fusion partners need not be part of it.

Amino acid sequences for entries named in this document (tags omitted).
UniProt Q99558: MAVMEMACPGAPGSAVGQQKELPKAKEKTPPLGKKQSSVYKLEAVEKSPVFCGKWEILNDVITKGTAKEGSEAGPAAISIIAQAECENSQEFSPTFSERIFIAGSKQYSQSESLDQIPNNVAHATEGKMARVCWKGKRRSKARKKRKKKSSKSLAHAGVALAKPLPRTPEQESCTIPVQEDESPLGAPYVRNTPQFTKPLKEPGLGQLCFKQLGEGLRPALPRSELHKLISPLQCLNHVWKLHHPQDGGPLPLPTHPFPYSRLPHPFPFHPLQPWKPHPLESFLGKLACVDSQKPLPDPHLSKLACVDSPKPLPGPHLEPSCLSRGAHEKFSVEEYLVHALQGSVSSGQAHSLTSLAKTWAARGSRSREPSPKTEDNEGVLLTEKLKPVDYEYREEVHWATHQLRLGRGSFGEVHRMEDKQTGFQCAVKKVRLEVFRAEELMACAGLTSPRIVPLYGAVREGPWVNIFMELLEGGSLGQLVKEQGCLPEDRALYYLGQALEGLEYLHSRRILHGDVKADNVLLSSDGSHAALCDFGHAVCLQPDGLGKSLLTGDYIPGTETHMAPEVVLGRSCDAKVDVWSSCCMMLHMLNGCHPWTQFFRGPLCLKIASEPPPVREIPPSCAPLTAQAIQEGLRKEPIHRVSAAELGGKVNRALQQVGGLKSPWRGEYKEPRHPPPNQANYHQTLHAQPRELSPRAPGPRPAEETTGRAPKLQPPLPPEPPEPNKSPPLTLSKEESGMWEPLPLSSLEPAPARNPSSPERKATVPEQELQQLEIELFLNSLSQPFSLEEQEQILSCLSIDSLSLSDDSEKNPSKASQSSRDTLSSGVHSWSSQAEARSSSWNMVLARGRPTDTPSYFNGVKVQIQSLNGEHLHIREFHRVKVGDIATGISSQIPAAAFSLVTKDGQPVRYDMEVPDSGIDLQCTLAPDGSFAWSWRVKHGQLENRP

The target of this assay is T1, HA-tagged IKKe (inhibitor of nuclear factor kappa-B kinase epsilon) (UniProt Q14164).
T1 sequence: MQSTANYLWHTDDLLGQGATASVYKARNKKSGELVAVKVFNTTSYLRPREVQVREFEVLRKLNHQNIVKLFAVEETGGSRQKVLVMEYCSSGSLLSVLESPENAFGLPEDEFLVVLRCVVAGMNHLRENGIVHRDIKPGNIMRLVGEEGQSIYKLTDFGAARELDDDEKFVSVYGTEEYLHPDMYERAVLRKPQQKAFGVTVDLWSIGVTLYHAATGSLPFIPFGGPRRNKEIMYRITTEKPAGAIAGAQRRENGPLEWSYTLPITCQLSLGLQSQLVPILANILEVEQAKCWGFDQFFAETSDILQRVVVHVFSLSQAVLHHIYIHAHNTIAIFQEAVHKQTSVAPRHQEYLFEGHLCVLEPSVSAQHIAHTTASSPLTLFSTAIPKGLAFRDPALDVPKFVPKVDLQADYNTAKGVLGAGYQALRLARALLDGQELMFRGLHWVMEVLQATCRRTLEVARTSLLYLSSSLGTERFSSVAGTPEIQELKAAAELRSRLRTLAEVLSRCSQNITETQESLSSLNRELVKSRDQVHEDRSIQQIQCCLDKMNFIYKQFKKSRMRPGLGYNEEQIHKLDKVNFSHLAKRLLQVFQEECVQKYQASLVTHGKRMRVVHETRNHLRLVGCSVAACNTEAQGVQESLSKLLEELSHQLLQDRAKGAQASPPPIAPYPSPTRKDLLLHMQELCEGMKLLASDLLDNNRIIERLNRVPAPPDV
Put plainly: co-IP; HEK293T cells co-transfected with HA-IKKe and Myc-NIK, with MG132; immunoprecipitation with HA-tag antibody, immunoblot with NIK (or Myc) antibody. In general terms: A western blot detects proteins with antibodies after separation by electrophoresis.

“Myc-tagged NIK (NF-κB-inducing kinase, MAP3K14) (from UniProt Q99558 1-947)”: the binding result is given as “binds”.

(Values after paper PMC8040464.)
